{"sequences": {"note": "The chains behind the UniProt entries cited, without tags or fusion partners. Where a name states a change or a piece, a line headed by the entry shows the natural chain unless it says otherwise. Residues count along the entry.", "UniProt Q96T91, residues 24-129": "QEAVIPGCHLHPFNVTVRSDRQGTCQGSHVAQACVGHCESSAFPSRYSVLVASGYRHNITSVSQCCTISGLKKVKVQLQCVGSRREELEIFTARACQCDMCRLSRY", "UniProt Q86YW7": "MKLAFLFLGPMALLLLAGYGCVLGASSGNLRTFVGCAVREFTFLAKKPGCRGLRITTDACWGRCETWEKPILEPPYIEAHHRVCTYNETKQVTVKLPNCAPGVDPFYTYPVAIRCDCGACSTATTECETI"}, "source": "patent US20020160953A1", "target": "Zsig51 (UniProt Q96T91)", "test": "co-immunoprecipitation in both directions (anti-Zsig51 and anti-Zlut1 polyclonals), purified proteins mixed or conditioned medium of co-infected cells, Western blot", "note": "Results are given in words; binding and its absence hold for the method and conditions named. In cells and extracts the contact can be indirect. Some binding calls cover weakened binding; strength is not graded here."}
{"substance": "human Zlut1 (mammalian glycoprotein hormone-1) (from UniProt Q86YW7 25-130) (ligand)", "values": [{"measurement": "binding", "value": "binds"}]}
